Results on three substances are retold here after publication PMC7062751.

By UniProt entry, the sequences of proteins in these tests, tags left out.
UniProt Q9Y6I9: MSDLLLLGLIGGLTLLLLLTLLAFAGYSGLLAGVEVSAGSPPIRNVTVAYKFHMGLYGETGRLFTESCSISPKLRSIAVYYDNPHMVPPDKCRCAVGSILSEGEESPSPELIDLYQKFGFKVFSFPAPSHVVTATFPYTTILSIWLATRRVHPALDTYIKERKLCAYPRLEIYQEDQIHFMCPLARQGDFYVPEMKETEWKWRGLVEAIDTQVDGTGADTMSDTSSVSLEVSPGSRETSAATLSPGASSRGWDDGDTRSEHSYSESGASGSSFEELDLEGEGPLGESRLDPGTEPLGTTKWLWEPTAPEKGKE
UniProt P12004: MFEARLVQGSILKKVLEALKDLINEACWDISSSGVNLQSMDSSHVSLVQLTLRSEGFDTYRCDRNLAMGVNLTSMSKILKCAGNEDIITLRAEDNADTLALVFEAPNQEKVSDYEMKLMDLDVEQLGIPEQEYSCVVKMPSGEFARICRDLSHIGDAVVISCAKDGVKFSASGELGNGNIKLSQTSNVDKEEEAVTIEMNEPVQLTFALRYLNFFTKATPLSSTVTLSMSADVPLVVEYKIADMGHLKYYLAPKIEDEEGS
UniProt P11387: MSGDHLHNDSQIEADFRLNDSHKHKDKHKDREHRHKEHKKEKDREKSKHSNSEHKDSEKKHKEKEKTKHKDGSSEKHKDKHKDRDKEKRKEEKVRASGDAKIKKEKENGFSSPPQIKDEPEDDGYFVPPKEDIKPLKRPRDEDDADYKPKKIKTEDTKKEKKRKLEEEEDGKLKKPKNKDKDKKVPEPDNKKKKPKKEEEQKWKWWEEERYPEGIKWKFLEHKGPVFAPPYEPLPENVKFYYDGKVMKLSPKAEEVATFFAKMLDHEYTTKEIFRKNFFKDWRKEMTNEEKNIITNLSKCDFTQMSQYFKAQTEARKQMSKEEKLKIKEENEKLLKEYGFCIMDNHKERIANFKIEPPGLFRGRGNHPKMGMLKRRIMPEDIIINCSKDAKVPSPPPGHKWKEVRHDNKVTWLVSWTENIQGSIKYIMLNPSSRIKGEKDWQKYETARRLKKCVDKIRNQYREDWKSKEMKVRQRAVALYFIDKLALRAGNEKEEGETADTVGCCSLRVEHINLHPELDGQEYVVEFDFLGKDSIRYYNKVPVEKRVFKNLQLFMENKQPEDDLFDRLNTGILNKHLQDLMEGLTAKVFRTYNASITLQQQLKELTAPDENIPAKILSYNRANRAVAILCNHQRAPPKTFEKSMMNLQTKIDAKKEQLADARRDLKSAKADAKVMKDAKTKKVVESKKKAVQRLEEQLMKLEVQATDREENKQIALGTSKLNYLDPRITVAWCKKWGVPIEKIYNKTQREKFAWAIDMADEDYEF

These are yes or no findings as the source states them, for the method shown. Binding seen in cells or lysates may run through a third protein. Here binding means that the protein was enriched with, or labelled near, the bait; the list need not be complete.

For the experiment, the target named is TEX264-SSH (UniProt Q9Y6I9). As to the kind of experiment: affinity purification with mass spectrometry; Strep-Tactin Sepharose on Benzonase-digested chromatin of doxycycline-induced TEX264-SSH Flp-In TRex HEK293 cells; biotin elution; LC-MS/MS.

Regarding “PCNA (endogenous) (from UniProt P12004 1-261)”, the binding entry was “binds”.
Under “p97 ATPase (endogenous) (from UniProt P55072 1-806)” stands “binds”.
Take “Topoisomerase 1 (endogenous TOP1) (from UniProt P11387 1-765)”: the binding entry is recorded as “binds”.
